Assay [1] concerns the target T1, human BTN1A1-ECD-His6 (human), Q13410.
T1 chain: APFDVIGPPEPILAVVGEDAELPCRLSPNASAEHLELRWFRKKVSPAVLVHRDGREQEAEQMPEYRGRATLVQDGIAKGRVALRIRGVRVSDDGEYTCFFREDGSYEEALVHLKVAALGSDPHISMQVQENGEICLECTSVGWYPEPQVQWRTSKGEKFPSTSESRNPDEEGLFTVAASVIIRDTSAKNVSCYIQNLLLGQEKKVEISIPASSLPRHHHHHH
The assay is described as follows: dot blot, lanes 9 and 10; antigen not labelled on the sheet, taken from legend paragraph 65 as BTN1A1-ECD-His6 without and with PNGase F; layout from D00019 FIG. 19B. To be noted: remark: other sources report otherwise.

The target is the same in assay [2]. The assay can be described thus: dot blot, BTN1A1-ECD-His with and without PNGase F. Conditions: remark: other sources report otherwise.

These are yes or no findings as the source states them, for the method shown. Some binding calls cover weakened binding; strength is not graded here. Tags and fused reporters may be left off the sequences shown.

B1: STC810 (antibody, V domains shown)
VH: EVQLQQSGPELVKPGASVKISCKASGYTFTHYNMDWVKQSHGKSLEWIGYIYPSNGGTGYNQKFKSRATLTVDKSSSTAYMELHSLTSEDSAVYYCARGAYHYGSSYAYWYFDVWGAGTTVTVSS
VL: DIQMTQTTSSLSASLGDRVTISCSASQDISNYLNWYQQKPDETVKLLISYTSSLHSGVPSRFSGSGSGTDYSLTISNLAPEDIATYYCQQSSKLPFTFGSGTELEIKRA
modifications: here or on the partner: N-glycosylated (PNGase F sensitive)
With B1, the binding result in assay [1] and in assay [2] was “binds” in each case.

B2: STC838 (antibody, V domains shown)
VH: EVQLQQSGPELVKPGASVKISCKASGYTFTHYNMDWVKQSHGKSLEWIGYIYPSNGGTGYNQKFKSRATLTVDKSSSTAYMELHSLTSEDSAVYYCARGAYHYGSSYAYWYFDVWGAGTTVTVSS
VL: DIQMTQTTSSLSASLGDRVTISCSASQDISNYLNWYQQKPDETVKLLISYTSSLHSGVPSRFSGSGSGTDYSLTISNLAPEDIATYYCQQSSKLPFTFGSGTELEIKRA
modifications: here or on the partner: N-glycosylated (PNGase F sensitive)
Consider B2, for which the binding result in assay [1] and in assay [2] was “binds” in each case.

The values above are taken from patent US20200148768A1.
